Reference: paper PMC9122951
No constants are given. Whether binding was seen depends on the method and setting. In cells and extracts the contact can be indirect.

Protein sequences, listed by entry. Tags and fused reporters are not part of them. Lines headed by an entry give the natural chain unless they say otherwise; changes in a name come on top.
UniProt Q96AC1: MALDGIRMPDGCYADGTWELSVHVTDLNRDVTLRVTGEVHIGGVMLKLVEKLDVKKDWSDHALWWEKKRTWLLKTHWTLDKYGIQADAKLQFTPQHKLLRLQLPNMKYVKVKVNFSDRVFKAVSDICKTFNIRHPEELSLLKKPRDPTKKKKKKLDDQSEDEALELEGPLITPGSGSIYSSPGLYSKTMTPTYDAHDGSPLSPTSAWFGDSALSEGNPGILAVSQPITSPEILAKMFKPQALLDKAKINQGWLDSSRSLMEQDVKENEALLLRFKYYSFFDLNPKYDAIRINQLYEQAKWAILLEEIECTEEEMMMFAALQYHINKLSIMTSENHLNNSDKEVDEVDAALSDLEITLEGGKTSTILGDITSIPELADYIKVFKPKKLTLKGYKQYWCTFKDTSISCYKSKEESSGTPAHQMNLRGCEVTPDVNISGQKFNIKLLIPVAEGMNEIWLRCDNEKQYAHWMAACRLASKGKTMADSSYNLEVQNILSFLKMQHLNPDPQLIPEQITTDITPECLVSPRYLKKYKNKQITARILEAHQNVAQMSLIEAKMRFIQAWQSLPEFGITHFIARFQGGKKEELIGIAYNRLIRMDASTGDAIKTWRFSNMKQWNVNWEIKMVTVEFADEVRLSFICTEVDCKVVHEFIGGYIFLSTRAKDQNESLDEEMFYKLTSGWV
UniProt P10275: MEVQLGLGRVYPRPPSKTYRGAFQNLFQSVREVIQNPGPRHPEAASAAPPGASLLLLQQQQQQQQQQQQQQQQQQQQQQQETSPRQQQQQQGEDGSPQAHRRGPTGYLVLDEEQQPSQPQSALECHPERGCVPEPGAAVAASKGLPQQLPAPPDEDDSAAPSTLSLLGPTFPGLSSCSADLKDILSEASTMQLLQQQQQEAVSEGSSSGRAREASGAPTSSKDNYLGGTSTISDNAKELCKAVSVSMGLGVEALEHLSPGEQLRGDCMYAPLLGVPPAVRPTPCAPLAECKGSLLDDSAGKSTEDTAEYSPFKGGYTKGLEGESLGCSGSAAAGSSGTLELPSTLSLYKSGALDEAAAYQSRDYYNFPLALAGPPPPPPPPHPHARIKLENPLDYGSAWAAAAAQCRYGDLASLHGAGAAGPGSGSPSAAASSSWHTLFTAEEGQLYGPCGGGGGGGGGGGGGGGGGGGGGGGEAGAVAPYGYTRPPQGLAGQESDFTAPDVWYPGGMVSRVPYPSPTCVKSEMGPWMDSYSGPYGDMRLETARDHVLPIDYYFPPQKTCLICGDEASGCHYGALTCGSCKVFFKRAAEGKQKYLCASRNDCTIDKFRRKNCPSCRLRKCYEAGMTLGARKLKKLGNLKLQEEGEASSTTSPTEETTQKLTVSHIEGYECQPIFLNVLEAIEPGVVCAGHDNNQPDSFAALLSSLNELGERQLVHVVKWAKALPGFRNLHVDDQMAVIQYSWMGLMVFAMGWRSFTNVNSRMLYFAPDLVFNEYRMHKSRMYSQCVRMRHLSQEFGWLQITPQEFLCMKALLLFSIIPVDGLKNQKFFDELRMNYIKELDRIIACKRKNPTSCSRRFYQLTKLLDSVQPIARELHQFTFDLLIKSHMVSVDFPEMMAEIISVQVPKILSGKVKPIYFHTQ

Biological target: Flag-tagged F1-domain-deleted mutant of Kindlin-2 (UniProt Q96AC1)
Assay: co-IP; lysates of Kindlin-2 knockdown BT549 cells infected with lentivirus encoding 3×Flag-tagged Kindlin-2 WT, ΔF1 or ΔF0; IP with anti-Flag antibody, immunoblot for endogenous AR and Src

Question: “Androgen receptor (from UniProt P10275 1-920)” was tested. Which binding did it give?
Answer: no binding
